Laboratory results reported in PubChem BioAssay AID2685 (National Center for Advancing Translational Sciences (NCATS), 2010).
The list shows a part of the results. Shown are side measurements of this screen, not its main read-out; they come without a call. The list favours compounds with an active or inconclusive main result. Potencies come from curve fits of mixed quality, noted in brackets.

Assay: qHTS Assay for Lipid Storage Modulators in Drosophila S3 Cells;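 for cell number change: cells counted by Cell Tracker Red CMTPX staining in the red channel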
Conditions: BODIPY lipid droplet fluorescence, 18-24 h; for cell number change: measured here: cell count max response, cells fed with added oleic acid
Procedure, shortened: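 Drosophila S3 cells loaded with oleic acid (400 uM, as added) and compounds at several concentrations; lipid droplets imaged by 488-nm laser-scanning cytometry, 500–530 nm intensity and object ratio to cell channel. Percent activity normalized to 20 uM Triacsin C.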

[1] = measured here: lipid fluorescence (Fed channel) AC50, cells fed with added oleic acid
[2] = measured here: cell number channel AC50, cells fed with added oleic acid

Row | SMILES | cell number change | AC50 [1] | AC50 [2]
1 | CC(=O)Nc1ccc(C(=O)NN2C(=O)NC3(CCCCC3)C2=O)cc1 | -15.7% | 0.58 µM [falling, full curve] | –
2 | COC(=O)c1c(C#N)c(N)nc2c1CCC2 | – | 6.51 µM [falling, single point] | –
3 | O=C(N/N=C/c1cc(Cl)ccc1O)c1cccnc1 | -28.8% | 3.66 µM [falling, partial curve] | –
4 | Cc1ccc(C(=O)Nc2cc(C(C)C)c(O)c(C(C)C)c2)cc1 | 19.2% | 0.00411 µM [rising, full curve, poor fit] | –
5 | Cc1c(CC(=O)NCC(C)C)c(=O)oc2cc3c(cc12)CCC(C)(C)O3 | -72.5% | 20.6 µM [falling, partial curve] | 23.1 µM [falling, partial curve]
6 | CCOC(=O)C1=C(O)C(=O)N(c2ccccc2)C1c1cccc([N+](=O)[O-])c1 (centres undefined) | -7.47% | – | –
7 | COc1ccccc1Oc1ccc(-c2cnc3ccccc3n2)cc1[N+](=O)[O-] | 124% | 29.1 µM [rising, partial curve] | 29.1 µM [rising, single point]
8 | COc1ccccc1NS(=O)(=O)c1cccc(C(=O)N2CCN(C(=O)c3ccco3)CC2)c1 | -15.9% | – | –
9 | CCCCNC(=O)C(=O)NCc1ccncc1 | -15.6% | 0.116 µM [falling, full curve, poor fit] | –
10 | O=C(Cn1c(-c2ccco2)nc2ccccc21)N1CCCCC1 | – | 2.59 µM [falling, partial curve, poor fit] | –
11 | CC(C)(C)c1ccc(OCC(O)CS(=O)(=O)c2ccccn2)cc1 (centres undefined) | -31.2% | 18.4 µM [falling, partial curve] | 2.31 µM [falling, single point]
12 | O=CN1CCN(C(=S)NC(=O)c2ccc(Cl)cc2)CC1 | 15.2% | 29.1 µM [rising, single point] | –
13 | COc1ccccc1OCC(=O)Nc1cc2c(cc1C(=O)O)OCCCO2 | 14.1% | 23.1 µM [rising, single point] | –
14 | CCCN1CCC(=O)N(CCOc2ccccc2)CC1 | -2.69% | 29.1 µM [rising, single point] | –
15 | O=C(O)c1ccccc1S(=O)(=O)NCC(O)COc1ccc(Br)cc1 (centres undefined) | -7.27% | 0.00461 µM [falling, full curve, poor fit] | –
16 | CCCc1[nH]nc2c1C(/C(C)=C/c1ccccc1)C(C#N)=C(N)O2 (centres undefined) | -0.593% | 0.116 µM [rising, full curve, poor fit] | –
17 | O=C(NCC1CCCO1)C1CCN(c2ccc(S(=O)(=O)N3CCCC3)cc2)CC1 (centres undefined) | 42.1% | – | 23.1 µM [rising, single point]
18 | COc1ccc(OC)c(CN2CCN(C(=O)[C@@H](NC(=O)c3cccc(C)c3)C(C)C)CC2)c1 | 4.81% | 0.461 µM [rising, partial curve, poor fit] | –
19 | CCn1ncc(CN2CCN(C(=O)Nc3ccccc3C(=O)OC)CC2)c1C | -3.84% | – | –
20 | COc1ccc(CCC(=O)OCc2csc(CC(=O)Nc3ccccc3C)n2)cc1 | -20.6% | 0.0651 µM [falling, full curve, poor fit] | –

Row | SMILES | cell number change | AC50 [1] | AC50 [2]
21 | O=C(Cc1ccccc1F)Nc1cc(S(=O)(=O)N2CCCC2)ccc1Cl | -14.2% | 29.1 µM [falling, single point] | –
22 | CC1CN(c2nc3c(c(=O)n(Cc4ccc(Cl)cc4)c(=O)n3C)n2C)CC(C)O1 (centres undefined) | -4.45% | – | –
23 | CCOc1ccc(S(=O)(=O)Nc2cccc(C(=O)N3CCN(C(C)=O)CC3)c2)cc1 | 15.2% | 0.116 µM [falling, single point] | –
24 | COc1ccc(NC(=O)CCCN2C(=O)C(c3ccccc3)Oc3cccnc32)c(OC)c1 (centres undefined) | 1.65% | – | –
25 | O=C(COc1ccccc1F)NC1CC1 | -16.8% | 0.366 µM [falling, full curve] | –
26 | CCc1ccc(N2CC(C(=O)Nc3cccc(S(=O)(=O)N4CCCC4)c3)CC2=O)cc1 (centres undefined) | 4.17% | 13 µM [rising, partial curve] | –
27 | O=C(O)CCc1ccc(-c2ccccc2)n1NC(=O)c1sc2ccccc2c1Cl | 1.05% | 0.0517 µM [rising, full curve, poor fit] | –
28 | O=C(O)Cn1cnc2ccccc2c1=O | – | 29.1 µM [falling, single point] | 6.51 µM [falling, single point]
29 | COc1ccc(CNC(=O)c2ccc(S(=O)(=O)N3CCCC3)cc2)cc1OC | 13% | – | –
30 | O=C(CCC(=O)OCC(=O)c1ccc(F)cc1)NC1CCCCC1 | -10.9% | 23.1 µM [falling, partial curve] | 2.31 µM [falling, partial curve, poor fit]
31 | C[C@H](NC(=O)c1nc[nH]c1C(=O)NCc1ccc(CNC(=O)OC(C)(C)C)cc1)c1ccccc1 | -29.8% | – | –
32 | CN(C)S(=O)(=O)c1cccc(NC(=O)c2ccc(OC(F)(F)F)cc2)c1 | -28.4% | 1.64 µM [falling, partial curve, poor fit] | 4.11 µM [falling, full curve, poor fit]
33 | Cc1ccc(/C=C2\SC(=S)N(CCCC(=O)Nc3ccc(O)cc3)C2=O)cc1 | -36.4% | – | 29.1 µM [falling, single point]
34 | Cc1cc2oc(C(=O)Nc3nonc3C)c(C)c2cc1C | 3.12% | – | –
35 | CC1CCCCN1CCCNC(=O)c1ccc2c(=O)n(CCc3ccccc3)c(=O)[nH]c2c1 (centres undefined) | -6.17% | 0.731 µM [falling, single point] | 0.231 µM [falling, full curve]
36 | COc1ccc(N2CCN(C(=O)c3ccc(CNS(=O)(=O)c4cccc(OC)c4)cc3)CC2)cc1 | -17.6% | 25.9 µM [falling, partial curve, poor fit] | –
37 | Cc1ccc(C(C(=O)NC(C)(C)C)N(Cc2ccco2)C(=O)Cn2nnc(-c3cccs3)n2)cc1 (centres undefined) | -31.1% | 16.4 µM [falling, partial curve] | 14.6 µM [falling, single point]
38 | CCOC(=O)c1c(/N=C/N(C)C)sc2c1CCC2 | 14.3% | 29.1 µM [rising, partial curve, poor fit] | –
39 | CCC1(C)CC2(CCCN(CCC(=O)c3ccccc3)C2)CCO1 (centres undefined) | -28.5% | 29.1 µM [falling, single point] | –
40 | CCOC(=O)c1c(NC(=O)CC2SC(=NC)N(C)C2=O)sc(C)c1C (centres undefined) | – | 1.64 µM [rising, partial curve] | 0.731 µM [rising, full curve]

Row | SMILES | cell number change | AC50 [1] | AC50 [2]
41 | Cc1ccc2nc(NC(=O)COC(=O)c3ccco3)sc2c1 | 1.01% | 0.259 µM [rising, full curve] | 1.16 µM [rising, full curve, poor fit]
42 | O=C(CN1C(=O)S/C(=C\c2ccc(Cl)cc2)C1=O)NNC(=O)c1ccccc1O | -33.2% | 20.6 µM [falling, partial curve] | 4.11 µM [falling, full curve, poor fit]
43 | CCN(CC)S(=O)(=O)c1ccc(OC(C)C)c(NC(=O)C2=COCCO2)c1 | -19.5% | 7.31 µM [falling, partial curve] | –
44 | CC(NC(=O)c1cc(COc2ccccc2)on1)c1nccs1 (centres undefined) | – | 5.8 µM [rising, single point] | –
45 | CN(C)CCCN(C(=O)c1ccc([N+](=O)[O-])s1)c1nc2cc3c(cc2s1)OCCO3 | -18.5% | – | –
46 | Cc1ccccc1Nc1nn2c(=O)c3ccccc3nc2s1 | -10.1% | 0.731 µM [rising, single point] | –
47 | O=C(CN1CCC(C(=O)c2ccc3c(c2)OCCO3)CC1)NC1CCCC1 | 8.16% | 6.51 µM [rising, partial curve, poor fit] | –
48 | O=C(NCc1ccc2c(c1)OCO2)c1ccc(NC(=O)C2CCCO2)cc1 (centres undefined) | 7.82% | 6.51 µM [rising, partial curve, poor fit] | –
49 | Cc1ccc(-n2c(SCc3ccc(C#N)cc3)nnc2-c2ccccn2)cc1 | 29.4% | 5.17 µM [rising, full curve] | 0.731 µM [rising, full curve, poor fit]
50 | COc1cccc(Nc2nc(-c3ccccc3O)nc3ccccc23)c1 | 13.8% | 0.58 µM [rising, full curve, poor fit] | –
51 | O=S(=O)(NC1CC1)c1ccc(Cl)cc1 | 0.293% | 18.4 µM [rising, single point] | –
52 | NC(=O)C1(N2CCCCC2)CCN(CC(=O)Nc2ccccc2-c2ccccc2)CC1 | 15.7% | 13 µM [falling, partial curve] | –
53 | Clc1ccc(CSc2nnc(-c3ccncc3)s2)cc1 | 14.5% | – | 6.51 µM [rising, single point]
54 | COc1ccccc1CN(C)CC(=O)Nc1cccc(S(=O)(=O)N2CCCCC2)c1 | – | 32.6 µM [falling, partial curve, poor fit] | –
55 | Cc1cc(C)cc(NC(=S)Nc2ccc(Cl)c(Cl)c2)c1 | -43.8% | 17.8 µM [falling, single point] | 35.5 µM [falling, single point]
56 | CC(C)(C)NC(=O)CN(CCN1CCOCC1)C(=O)CNS(=O)(=O)c1ccccc1 | 7.39% | 29.1 µM [rising, single point] | –
57 | Cc1cc(C=O)c(C)n1-c1ccc(N2CCOCC2)c([N+](=O)[O-])c1 | 10.1% | 0.291 µM [falling, partial curve, poor fit] | –
58 | COc1ccc(S(=O)(=O)NCC(c2ccc(F)cc2)N2CCOCC2)cc1Br (centres undefined) | -8.42% | – | 1.3 µM [rising, partial curve]

One compound at a time, as listed above.
`CCCc1[nH]nc2c1C(/C(C)=C/c1ccccc1)C(C#N)=C(N)O2` (centres undefined) is listed as cell number change: -0.593%; AC50 [1]: 0.116 µM [rising, full curve, poor fit]
`CCn1ncc(CN2CCN(C(=O)Nc3ccccc3C(=O)OC)CC2)c1C` is listed as cell number change: -3.84%
